Measured values reported in patent publication US9885704B2, “Reagents and methods for cancer treatment and prevention” (priority 2006, dated 2018).
At least one compound was matched to its structure with a doubt left.

How the values were obtained:
[1] = tested on: patient-derived cancer lines; assay: Cytokine secretion after thapsigargin treatment of patient-derived cancer lines; type: cell-based; conditions: variety of patient-derived cancer lines; FIG. 3
HeLa cells = assay: Pro-inflammatory cytokine release from THP-1 after exposure to compound-treated HeLa cells (ELISA); type: cell-based, human
Protocol: The human cervical epithelium cell line HeLa and the mouse B16-F10 melanoma were purchased from American TCC and maintained in Dulbecco's modified eagle's media [D-MEM (Cellgro®, Herndon Va.)] supplemented with 10% fetal bovine serum (Sigma-Aldrich, St. Louis, Mo.). All cell stress/death-related treatments described below were performed using HeLa cells in initial screens. The human promonocytic leukemia THP-1 (ATCC, Manassas Va.) and pro-macrophage MonoMac6 cells were utilized as the reporter antigen presenting cells utilized in this study. Ziegler-Heitbrock et al., “Establishment of a human cell line (Mono Mac 6) with characteristics of mature monocytes” Int. J. Cancer 41:456-461 (1988). Both lines were maintained in RPMI-1640 media (Cellgro®) supplemented with 10% fetal bovine serum. Unless otherwise noted, all cells were maintained at 37° C. in a humidified incubator supplemented with 5% CO2. […]
Following cell stress/death, resulting cells/cell debris were collected, washed 3 times with excess phosphate-buffered saline, rapidly cycled through freeze/thaw (−80° C. to 25° C.) three times, and quantified by UV spectrophotometry (A280). […] Supernatants were assessed for the presence of pro-inflammatory cytokines including tumor necrosis factor-α (TNF-α), interleukin 8 (IL-8), and IL-12 using commercially available ELISA systems. […]

monocytic cell line = assay: Activation of an antigen presenting cell read-out system (monocytic cell line, TNF-α secretion); type: cell-based; conditions: data not shown
[2] = target: Ca(2+)-ATPase from sarcoplasmic and endoplasmic reticula; conditions: dead-end complex resembling E(2) state; read-out: affinity of binding to Ca(2+)-ATPase; cited from earlier work

In the case of `C/C=C(/C)C(=O)O[C@H]1C(C)=C2[C@H]([C@@H]1OC(=O)CCCCCCC)[C@@](C)(OC(C)=O)C[C@H](OC(=O)CCC)[C@@]1(O)[C@H]2OC(=O)[C@@]1(C)O` [Thapsigargin], the “secretion of IL-8” value [1] is reported as “results in secretion”, the “secretion of IL-12” value [1] is reported as “results in secretion” and the “secretion of TNF-α” value [1] is reported as “results in secretion”. The “TNF-α secretion / immunostimulatory activity” value (HeLa cells; HeLa cells treated with compound, FIG. 1) was “induced TNF-a secretion”, the “secretion of IL-8 from THP-1” value (HeLa cells; treated HeLa cells, monocyte cell line THP-1, FIG. 2) was “activated a dose-dependent secretion of IL-8” and the “activation of antigen presenting cell (TNF-α secretion)” value (monocytic cell line) was “capable of activating an antigen presenting cell (APC)”. The Kd [2] was under 1 nM.
